Counter-ions that a name gives are not always drawn. This is one part of the list. The calls rarely recur for the same compound in another form.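 In K562 cells expressing nanoluciferase-fused kinases, luminescence was recorded at 4 h intervals between 2 and 18 h, normalized as percent of control with DMSO at 100% and a positive control at 0%. A significant (2 sigma) signal drop marks a time point as decreased. The authors' rule for a hit is not shown and takes in more than the number of time points.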
Columns and labels:
Experiment in all cases: kinase-Nluc reporter destabilization hit call (1 = scored as downregulated) (binary); higher = compound decreases kinase abundance
Settings in all cases: K562; 2-18 h
EGFR = EGFR (UniProt P00533)
EGFR_G719S = EGFR_G719S (UniProt P00533)
EGFR_G719S_T790M = EGFR_G719S_T790M (UniProt P00533)
EGFR_L718V = EGFR_L718V (UniProt P00533)
EGFR_L858R = EGFR_L858R (UniProt P00533)
EGFR_L861Q = EGFR_L861Q (UniProt P00533)
EGFR_T790M = EGFR_T790M (UniProt P00533)
EPHA2 = EPHA2 (UniProt P29317)
ERBB3 = ERBB3 (UniProt P21860)
[1] = biological target: ERBB4_R711C (clone: ERBB4_mut) (UniProt Q15303)

Chains of the proteins cited; added tags and fusions are not shown.
UniProt P29317, whole entry: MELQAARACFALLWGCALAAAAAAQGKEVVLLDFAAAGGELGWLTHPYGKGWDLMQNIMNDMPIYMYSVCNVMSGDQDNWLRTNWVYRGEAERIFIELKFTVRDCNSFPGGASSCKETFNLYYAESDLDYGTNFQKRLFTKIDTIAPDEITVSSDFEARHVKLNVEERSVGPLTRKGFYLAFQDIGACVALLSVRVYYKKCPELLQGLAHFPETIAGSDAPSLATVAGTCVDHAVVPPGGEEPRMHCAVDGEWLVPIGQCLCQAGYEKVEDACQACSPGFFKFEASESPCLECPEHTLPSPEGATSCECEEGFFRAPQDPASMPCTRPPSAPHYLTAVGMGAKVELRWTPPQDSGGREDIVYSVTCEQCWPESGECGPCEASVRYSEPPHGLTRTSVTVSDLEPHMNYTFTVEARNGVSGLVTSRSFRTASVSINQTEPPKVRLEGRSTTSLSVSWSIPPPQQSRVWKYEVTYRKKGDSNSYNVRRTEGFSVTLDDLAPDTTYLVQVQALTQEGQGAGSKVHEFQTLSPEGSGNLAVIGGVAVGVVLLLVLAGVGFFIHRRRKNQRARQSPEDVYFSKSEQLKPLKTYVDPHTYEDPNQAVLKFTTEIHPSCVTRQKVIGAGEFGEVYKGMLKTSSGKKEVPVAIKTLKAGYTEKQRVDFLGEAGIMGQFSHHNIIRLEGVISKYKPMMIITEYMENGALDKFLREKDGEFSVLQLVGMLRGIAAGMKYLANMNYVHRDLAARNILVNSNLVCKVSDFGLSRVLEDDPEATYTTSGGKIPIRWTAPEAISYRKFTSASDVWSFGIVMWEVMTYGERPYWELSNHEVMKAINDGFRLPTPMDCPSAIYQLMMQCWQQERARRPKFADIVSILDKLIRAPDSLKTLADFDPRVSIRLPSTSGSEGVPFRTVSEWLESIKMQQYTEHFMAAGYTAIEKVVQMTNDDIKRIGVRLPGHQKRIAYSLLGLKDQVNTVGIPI
UniProt P21860, whole entry: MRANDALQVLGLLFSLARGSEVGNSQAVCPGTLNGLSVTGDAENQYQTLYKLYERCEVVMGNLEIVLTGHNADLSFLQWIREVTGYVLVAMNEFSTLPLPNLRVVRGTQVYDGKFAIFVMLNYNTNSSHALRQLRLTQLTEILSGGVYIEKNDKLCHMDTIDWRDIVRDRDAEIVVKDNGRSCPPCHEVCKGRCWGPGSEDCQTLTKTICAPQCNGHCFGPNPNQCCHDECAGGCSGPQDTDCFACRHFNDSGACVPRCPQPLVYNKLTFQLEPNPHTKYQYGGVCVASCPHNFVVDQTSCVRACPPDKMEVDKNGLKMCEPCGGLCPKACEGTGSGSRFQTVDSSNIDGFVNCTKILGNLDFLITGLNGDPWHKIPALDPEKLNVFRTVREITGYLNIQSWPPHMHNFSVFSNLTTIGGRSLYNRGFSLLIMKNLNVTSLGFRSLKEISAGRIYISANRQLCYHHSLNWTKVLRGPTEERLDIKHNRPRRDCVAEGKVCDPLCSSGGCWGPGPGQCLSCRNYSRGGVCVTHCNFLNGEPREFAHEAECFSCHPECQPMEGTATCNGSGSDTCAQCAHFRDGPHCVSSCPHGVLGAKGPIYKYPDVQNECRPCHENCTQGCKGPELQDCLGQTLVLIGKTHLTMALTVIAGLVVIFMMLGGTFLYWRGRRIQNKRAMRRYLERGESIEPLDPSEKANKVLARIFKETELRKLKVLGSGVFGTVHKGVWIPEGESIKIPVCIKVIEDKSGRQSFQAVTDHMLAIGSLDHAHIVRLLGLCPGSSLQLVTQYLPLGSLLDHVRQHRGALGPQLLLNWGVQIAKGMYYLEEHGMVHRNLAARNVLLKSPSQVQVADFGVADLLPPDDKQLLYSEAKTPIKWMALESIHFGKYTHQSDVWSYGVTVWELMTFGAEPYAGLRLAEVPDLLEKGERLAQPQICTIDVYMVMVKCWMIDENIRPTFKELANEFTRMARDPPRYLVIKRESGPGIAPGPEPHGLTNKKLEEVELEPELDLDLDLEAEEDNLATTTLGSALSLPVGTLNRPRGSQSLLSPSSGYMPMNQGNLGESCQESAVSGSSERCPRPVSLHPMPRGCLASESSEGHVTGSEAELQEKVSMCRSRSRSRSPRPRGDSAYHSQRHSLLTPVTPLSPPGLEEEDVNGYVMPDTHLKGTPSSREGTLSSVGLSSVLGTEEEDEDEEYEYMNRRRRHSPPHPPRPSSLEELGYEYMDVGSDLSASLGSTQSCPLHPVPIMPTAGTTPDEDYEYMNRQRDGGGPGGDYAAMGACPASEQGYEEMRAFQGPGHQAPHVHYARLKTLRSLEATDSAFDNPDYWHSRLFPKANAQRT
UniProt Q15303, whole entry R711C: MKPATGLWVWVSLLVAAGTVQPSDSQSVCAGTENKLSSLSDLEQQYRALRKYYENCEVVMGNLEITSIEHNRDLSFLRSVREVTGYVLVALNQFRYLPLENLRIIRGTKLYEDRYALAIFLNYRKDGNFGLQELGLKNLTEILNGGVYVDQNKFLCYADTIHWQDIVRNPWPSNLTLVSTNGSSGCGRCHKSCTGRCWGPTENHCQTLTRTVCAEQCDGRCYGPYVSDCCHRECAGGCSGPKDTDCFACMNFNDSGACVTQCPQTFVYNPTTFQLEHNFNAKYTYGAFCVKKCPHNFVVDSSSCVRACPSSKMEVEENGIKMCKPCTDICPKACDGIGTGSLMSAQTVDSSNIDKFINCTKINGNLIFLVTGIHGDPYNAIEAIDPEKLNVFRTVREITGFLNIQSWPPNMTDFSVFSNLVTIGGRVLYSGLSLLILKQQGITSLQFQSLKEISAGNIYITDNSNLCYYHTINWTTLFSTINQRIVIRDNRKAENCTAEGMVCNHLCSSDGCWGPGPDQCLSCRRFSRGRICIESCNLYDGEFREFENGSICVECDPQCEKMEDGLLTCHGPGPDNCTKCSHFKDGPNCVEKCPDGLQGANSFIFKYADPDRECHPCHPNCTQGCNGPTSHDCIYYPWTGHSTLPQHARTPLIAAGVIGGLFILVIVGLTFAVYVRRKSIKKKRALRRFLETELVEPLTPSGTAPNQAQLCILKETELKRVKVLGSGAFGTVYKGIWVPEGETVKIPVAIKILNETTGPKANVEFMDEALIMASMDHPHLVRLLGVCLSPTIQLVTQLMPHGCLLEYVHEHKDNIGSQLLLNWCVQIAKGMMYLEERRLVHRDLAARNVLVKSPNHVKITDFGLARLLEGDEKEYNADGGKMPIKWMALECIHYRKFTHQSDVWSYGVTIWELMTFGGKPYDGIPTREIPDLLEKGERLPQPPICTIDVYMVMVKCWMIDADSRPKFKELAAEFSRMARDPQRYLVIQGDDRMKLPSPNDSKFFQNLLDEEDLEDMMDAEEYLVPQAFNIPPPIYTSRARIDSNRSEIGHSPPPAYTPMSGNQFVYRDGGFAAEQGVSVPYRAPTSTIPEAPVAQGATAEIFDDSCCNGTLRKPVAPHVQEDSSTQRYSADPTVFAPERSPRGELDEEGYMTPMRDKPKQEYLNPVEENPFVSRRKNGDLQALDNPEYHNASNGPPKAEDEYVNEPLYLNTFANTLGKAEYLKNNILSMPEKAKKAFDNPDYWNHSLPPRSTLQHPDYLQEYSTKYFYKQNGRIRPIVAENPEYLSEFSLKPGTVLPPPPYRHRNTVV

Measured: kinase-Nluc reporter destabilization hit call

CCOC(=O)C1=C[C@]2(CC)CCCN3CCc4c(n1c1ccccc41)[C@@H]32 [Vinpocetine] (10 µM)
inactive: EGFR 0 | EGFR_G719S 0 | EGFR_G719S_T790M 0 | EGFR_L718V 0 | EGFR_L858R 0 | EGFR_L861Q 0 | EGFR_T790M 0 | EPHA2 = 0 | ERBB3 = 0 | [1] 0

CCc1ccc(NC(=O)Nc2ccccc2)cc1 (10 µM)
inactive: EGFR 0 | EGFR_G719S 0 | EGFR_G719S_T790M 0 | EGFR_L718V 0 | EGFR_L858R 0 | EGFR_L861Q 0 | EGFR_T790M 0 | EPHA2 = 0 | ERBB3 = 0 | [1] 0

CCCCNc1ncc2c(-c3ccc(CN4CCN(C)CC4)cc3)cn([C@H]3CC[C@H](O)CC3)c2n1 [UNC2025 (hydrochloride)] (2.5 µM)
inactive: EGFR 0 | EGFR_G719S 0 | EGFR_G719S_T790M 0 | EGFR_L718V 0 | EGFR_L858R 0 | EGFR_L861Q 0 | EGFR_T790M 0 | EPHA2 = 0 | ERBB3 = 0 | [1] 0

CS(=O)(=O)N1CCN(Cc2cn3cc(-c4cnc(N)nc4)nc(N4CCOCC4)c3n2)CC1 (10 µM)
inactive: EGFR 0 | EGFR_G719S 0 | EGFR_G719S_T790M 0 | EGFR_L718V 0 | EGFR_L858R 0 | EGFR_L861Q 0 | EGFR_T790M 0 | EPHA2 = 0 | ERBB3 = 0 | [1] 0

CC1=C(C(=O)Nc2ccc3[nH]ncc3c2)C(c2ccc(F)c(C(=O)NCc3ccccn3)c2)NC(=O)N1 (stereo not given) (10 µM)
inactive: EGFR 0 | EGFR_G719S 0 | EGFR_G719S_T790M 0 | EGFR_L718V 0 | EGFR_L858R 0 | EGFR_L861Q 0 | EGFR_T790M 0 | EPHA2 = 0 | ERBB3 = 0 | [1] 0

C[C@@H]1CN(CC(=O)Nc2ccc3c(c2)Cc2cccc(-c4cc(=O)cc(N5CCOCC5)o4)c2S3)C[C@H](C)O1 (2.5 µM)
inactive: EGFR 0 | EGFR_G719S 0 | EGFR_G719S_T790M 0 | EGFR_L718V 0 | EGFR_L858R 0 | EGFR_L861Q 0 | EGFR_T790M 0 | EPHA2 = 0 | ERBB3 = 0 | [1] 0

CN(c1ccc(C(F)(F)F)cc1)S(=O)(=O)c1ccc(C(=O)Nc2nc(-c3ccccn3)cs2)cc1 (2.5 µM)
inactive: EGFR 0 | EGFR_G719S 0 | EGFR_G719S_T790M 0 | EGFR_L718V 0 | EGFR_L858R 0 | EGFR_L861Q 0 | EGFR_T790M 0 | EPHA2 = 0 | ERBB3 = 0 | [1] 0

COc1cccc(Nc2ncnn3ccc(CN4CC[C@@H](N)[C@H](O)C4)c23)c1 (2.5 µM)
inactive: EGFR 0 | EGFR_G719S 0 | EGFR_G719S_T790M 0 | EGFR_L718V 0 | EGFR_L858R 0 | EGFR_L861Q 0 | EGFR_T790M 0 | EPHA2 = 0 | ERBB3 = 0 | [1] 0

COC[C@H]1Cn2cc(-c3nc(Nc4ccnn4C)ncc3C)nc2C(=O)N1Cc1ccc(F)c(F)c1 (10 µM)
inactive: EGFR 0 | EGFR_G719S 0 | EGFR_G719S_T790M 0 | EGFR_L718V 0 | EGFR_L858R 0 | EGFR_L861Q 0 | EGFR_T790M 0 | EPHA2 = 0 | ERBB3 = 0 | [1] 0

COc1ccc(C(=O)c2cn(C(C)C)c3ncnc(N)c23)cc1NC(=O)Nc1ccc(Cl)cc1Cl (10 µM)
inactive: EGFR 0 | EGFR_G719S 0 | EGFR_G719S_T790M 0 | EGFR_L718V 0 | EGFR_L858R 0 | EGFR_L861Q 0 | EGFR_T790M 0 | EPHA2 = 0 | ERBB3 = 0 | [1] 0

CC(C)(C)S(=O)(=O)c1cc2c(Nc3ccc4scnc4c3)ccnc2cc1OCCOCCOCCOCCOCC(=O)Nc1cccc2c1CN(C1CCC(=O)NC1=O)C2=O (stereo not given) [PROTAC RIPK degrader-6] (10 µM)
inactive: EGFR 0 | EGFR_G719S 0 | EGFR_G719S_T790M 0 | EGFR_L718V 0 | EGFR_L858R 0 | EGFR_L861Q 0 | EGFR_T790M 0 | EPHA2 = 0 | ERBB3 = 0 | [1] 0

CC(C)(C)c1ccc(C(=O)Nc2cn3cc(-n4ccnc4)ccc3n2)cc1 (10 µM)
inactive: EGFR 0 | EGFR_G719S 0 | EGFR_G719S_T790M 0 | EGFR_L718V 0 | EGFR_L858R 0 | EGFR_L861Q 0 | EGFR_T790M 0 | EPHA2 = 0 | ERBB3 = 0 | [1] 0

Cn1cc(C2=C(c3c4n(c5ccccc35)CCC(CN)C4)C(=O)NC2=O)c2ccccc21 (stereo not given) [Bisindolylmaleimide X (hydrochloride)] (2.5 µM)
inactive: EGFR 0 | EGFR_G719S 0 | EGFR_G719S_T790M 0 | EGFR_L718V 0 | EGFR_L858R 0 | EGFR_L861Q 0 | EGFR_T790M 0 | EPHA2 = 0 | ERBB3 = 0 | [1] 0

Cc1c(C(=O)Nc2ccc(Oc3ccnc4cc(OCC(C)(C)O)ccc34)c(F)c2)c(=O)n(-c2ccccc2)n1C [Ningetinib Tosylate] (10 µM)
inactive: EGFR 0 | EGFR_G719S 0 | EGFR_G719S_T790M 0 | EGFR_L718V 0 | EGFR_L858R 0 | EGFR_L861Q 0 | EGFR_T790M 0 | EPHA2 = 0 | ERBB3 = 0 | [1] 0

O=c1cc(N2CCOCC2)oc2c1ccc1ccccc12 (2 µM)
inactive: EGFR 0 | EGFR_G719S 0 | EGFR_G719S_T790M 0 | EGFR_L718V 0 | EGFR_L858R 0 | EGFR_L861Q 0 | EGFR_T790M 0 | EPHA2 = 0 | ERBB3 = 0 | [1] 0

COc1cccc2cc(-c3nc([C@H]4CC[C@H](C(=O)O)CC4)n4ncnc(N)c34)[nH]c12 (2.5 µM)
inactive: EGFR 0 | EGFR_G719S 0 | EGFR_G719S_T790M 0 | EGFR_L718V 0 | EGFR_L858R 0 | EGFR_L861Q 0 | EGFR_T790M 0 | EPHA2 = 0 | ERBB3 = 0 | [1] 0

CNC(=O)c1ccc(-c2cnc3ncc(Cc4ccc5ncccc5c4)n3n2)cc1F [Capmatinib] (10 µM)
inactive: EGFR 0 | EGFR_G719S 0 | EGFR_G719S_T790M 0 | EGFR_L718V 0 | EGFR_L858R 0 | EGFR_L861Q 0 | EGFR_T790M 0 | EPHA2 = 0 | ERBB3 = 0 | [1] 0

CC(=O)Nc1nc(C)c(-c2cc3c(c(S(C)(=O)=O)c2)C(=O)N([C@@H](C)C2CC2)C3)s1 (2.5 µM)
inactive: EGFR 0 | EGFR_G719S 0 | EGFR_G719S_T790M 0 | EGFR_L718V 0 | EGFR_L858R 0 | EGFR_L861Q 0 | EGFR_T790M 0 | EPHA2 = 0 | ERBB3 = 0 | [1] 0

CCn1c2ccccc2c2cc(Nc3ccnc(NCCCN4CCOCC4)n3)ccc21 (2.5 µM)
inactive: EGFR 0 | EGFR_G719S 0 | EGFR_G719S_T790M 0 | EGFR_L718V 0 | EGFR_L858R 0 | EGFR_L861Q 0 | EGFR_T790M 0 | EPHA2 = 0 | ERBB3 = 0 | [1] 0

O=c1sn(-c2cccc3ccccc23)c(=O)n1Cc1ccccc1 [Tideglusib] (10 µM)
inactive: EGFR 0 | EGFR_G719S 0 | EGFR_G719S_T790M 0 | EGFR_L718V 0 | EGFR_L858R 0 | EGFR_L861Q 0 | EGFR_T790M 0 | EPHA2 = 0 | ERBB3 = 0 | [1] 0

CC(C)Cn1cc(C#N)c2cc(Oc3ccc(NC(=O)[C@@H]4CCCN4)cc3)ccc21 (10 µM)
inactive: EGFR 0 | EGFR_G719S 0 | EGFR_G719S_T790M 0 | EGFR_L718V 0 | EGFR_L858R 0 | EGFR_L861Q 0 | EGFR_T790M 0 | EPHA2 = 0 | ERBB3 = 0 | [1] 0

C[C@@H]1O[C@@H](O[C@H]2[C@H](OC(=O)[C@]34CCC(C)(C)C[C@H]3C3=CC[C@@H]5[C@@]6(C)C[C@H](O)[C@H](O[C@@H]7O[C@H](CO)[C@@H](O)[C@H](O)[C@H]7O)C(CO)(CO)[C@@H]6CC[C@@]5(C)[C@]3(C)C[C@H]4O)OC[C@H](O)[C@@H]2O)[C@H](O)[C@H](O)[C@H]1O[C@@H]1OC[C@@H](O)[C@H](O[C@@H]2OC[C@](O)(CO)[C@H]2O)[C@H]1O [Platycodin D] (10 µM)
inactive: EGFR 0 | EGFR_G719S 0 | EGFR_G719S_T790M 0 | EGFR_L718V 0 | EGFR_L858R 0 | EGFR_L861Q 0 | EGFR_T790M 0 | EPHA2 = 0 | ERBB3 = 0 | [1] 0

CC(=O)Nc1nc(C)c(-c2ccc(Cl)c(S(=O)(=O)NCCO)c2)s1 (10 µM)
inactive: EGFR 0 | EGFR_G719S 0 | EGFR_G719S_T790M 0 | EGFR_L718V 0 | EGFR_L858R 0 | EGFR_L861Q 0 | EGFR_T790M 0 | EPHA2 = 0 | ERBB3 = 0 | [1] 0

At a glance, 2 of the compounds above.
Cn1cc(C2=C(c3c4n(c5ccccc35)CCC(CN)C4)C(=O)NC2=O)c2ccccc21 (stereo not given) [Bisindolylmaleimide X (hydrochloride)] (2.5 µM)
inactive: EGFR 0 | EGFR_G719S 0 | EGFR_G719S_T790M 0 | EGFR_L718V 0 | EGFR_L858R 0 | EGFR_L861Q 0 | EGFR_T790M 0 | EPHA2 = 0 | ERBB3 = 0 | [1] 0

Cc1c(C(=O)Nc2ccc(Oc3ccnc4cc(OCC(C)(C)O)ccc34)c(F)c2)c(=O)n(-c2ccccc2)n1C [Ningetinib Tosylate] (10 µM)
inactive: EGFR 0 | EGFR_G719S 0 | EGFR_G719S_T790M 0 | EGFR_L718V 0 | EGFR_L858R 0 | EGFR_L861Q 0 | EGFR_T790M 0 | EPHA2 = 0 | ERBB3 = 0 | [1] 0

More records follow.

Nc1nc2c(ncn2COCCO)c(=O)[nH]1 [Acyclovir] (10 µM)
inactive: EGFR 0 | EGFR_G719S 0 | EGFR_G719S_T790M 0 | EGFR_L718V 0 | EGFR_L858R 0 | EGFR_L861Q 0 | EGFR_T790M 0 | EPHA2 = 0 | ERBB3 = 0 | [1] 0

COc1cc(-c2cc(-c3cccc(O)c3)cnc2N)cc(OC)c1OC (2.5 µM)
inactive: EGFR 0 | EGFR_G719S 0 | EGFR_G719S_T790M 0 | EGFR_L718V 0 | EGFR_L858R 0 | EGFR_L861Q 0 | EGFR_T790M 0 | EPHA2 = 0 | ERBB3 = 0 | [1] 0

CNC(=O)c1c(C)oc2cc(Oc3ncnc4cc(OC)c(OC)cc34)ccc12 [Fruquintinib] (10 µM)
inactive: EGFR 0 | EGFR_G719S 0 | EGFR_G719S_T790M 0 | EGFR_L718V 0 | EGFR_L858R 0 | EGFR_L861Q 0 | EGFR_T790M 0 | EPHA2 = 0 | ERBB3 = 0 | [1] 0

Cn1c(=O)c(Oc2ccc(F)cc2F)cc2cnc(NC(CCO)CCO)nc21 [Pamapimod] (10 µM)
inactive: EGFR 0 | EGFR_G719S 0 | EGFR_G719S_T790M 0 | EGFR_L718V 0 | EGFR_L858R 0 | EGFR_L861Q 0 | EGFR_T790M 0 | EPHA2 = 0 | ERBB3 = 0 | [1] 0

CN1CCN(c2ccc(NC(=O)c3ccc(C#N)o3)c(N3CCCCC3)c2)CC1 (10 µM)
inactive: EGFR 0 | EGFR_G719S 0 | EGFR_G719S_T790M 0 | EGFR_L718V 0 | EGFR_L858R 0 | EGFR_L861Q 0 | EGFR_T790M 0 | EPHA2 = 0 | ERBB3 = 0 | [1] 0

CC(C)n1cnnc1-c1cccc(NC(=O)c2cc3ccc(F)cc3[nH]2)n1 (2.5 µM)
inactive: EGFR 0 | EGFR_G719S 0 | EGFR_G719S_T790M 0 | EGFR_L718V 0 | EGFR_L858R 0 | EGFR_L861Q 0 | EGFR_T790M 0 | EPHA2 = 0 | ERBB3 = 0 | [1] 0

Reference: the supplement of paper PMC12823440, “Inhibitors supercharge kinase turnover through native proteolytic circuits” (Nature, 2025)
